Test results as given in paper PMC8339129.
No constants are given. Whether binding was seen depends on the method and setting. In cells and extracts the contact can be indirect. Some entries that bind do so weakly or less than the wild type. For part of these data: Sequences can lack the tags named with a protein. Values belong to the molecule of their own block, whether it stands above or below them.

By UniProt entry, the sequences of proteins in these tests, tags left out.
UniProt Q62463: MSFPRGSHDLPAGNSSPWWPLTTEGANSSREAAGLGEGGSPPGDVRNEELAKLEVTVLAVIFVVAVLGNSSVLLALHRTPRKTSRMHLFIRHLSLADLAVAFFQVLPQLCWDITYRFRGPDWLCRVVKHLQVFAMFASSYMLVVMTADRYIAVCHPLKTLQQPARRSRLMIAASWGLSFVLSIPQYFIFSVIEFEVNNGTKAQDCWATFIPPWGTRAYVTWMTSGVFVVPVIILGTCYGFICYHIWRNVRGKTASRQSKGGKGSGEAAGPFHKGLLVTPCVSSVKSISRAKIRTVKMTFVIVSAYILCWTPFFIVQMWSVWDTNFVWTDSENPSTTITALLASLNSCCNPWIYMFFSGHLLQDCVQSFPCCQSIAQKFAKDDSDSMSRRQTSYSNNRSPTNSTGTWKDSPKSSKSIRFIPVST
UniProt P42866: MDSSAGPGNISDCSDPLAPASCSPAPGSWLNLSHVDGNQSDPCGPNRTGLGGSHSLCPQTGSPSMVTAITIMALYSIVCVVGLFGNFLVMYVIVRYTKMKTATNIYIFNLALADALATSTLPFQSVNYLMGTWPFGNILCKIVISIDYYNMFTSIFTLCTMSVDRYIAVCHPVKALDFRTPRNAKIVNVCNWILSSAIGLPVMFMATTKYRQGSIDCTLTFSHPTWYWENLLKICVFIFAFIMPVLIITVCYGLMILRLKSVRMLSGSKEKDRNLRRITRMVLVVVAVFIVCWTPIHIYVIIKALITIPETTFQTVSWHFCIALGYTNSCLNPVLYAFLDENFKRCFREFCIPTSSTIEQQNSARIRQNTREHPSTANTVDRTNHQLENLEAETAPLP
UniProt Q91YI4: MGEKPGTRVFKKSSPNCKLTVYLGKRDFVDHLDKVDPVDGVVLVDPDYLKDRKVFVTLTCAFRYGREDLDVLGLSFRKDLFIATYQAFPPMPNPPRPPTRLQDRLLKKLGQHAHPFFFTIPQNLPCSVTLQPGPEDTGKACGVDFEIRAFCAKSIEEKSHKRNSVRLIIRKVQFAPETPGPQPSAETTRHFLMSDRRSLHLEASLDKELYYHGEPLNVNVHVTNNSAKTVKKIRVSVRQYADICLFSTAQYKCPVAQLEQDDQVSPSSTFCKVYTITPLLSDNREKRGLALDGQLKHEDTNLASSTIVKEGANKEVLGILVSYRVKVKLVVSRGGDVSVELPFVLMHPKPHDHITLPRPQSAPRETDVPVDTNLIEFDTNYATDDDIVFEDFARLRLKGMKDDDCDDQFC

Columns and labels:
[1] = target: V1a receptor fused to LgBit or SmBit (mouse) (UniProt Q62463); assay: split reporter; NanoBit luminescence of HEK cells co-expressing receptor-LgBit and receptor-SmBit, without β-arrestin 2-Venus; luminescence averaged over five min
[2] = target: V1a receptor fused to LgBit or SmBit (mouse) (UniProt Q62463); assay: split reporter; NanoBit luminescence of a membrane fraction prepared from cells expressing the V1a receptor fused to split Nluc, after addition of the substrate
[3] = target: heteromeric μ-V1b receptor (V1b-LgBit plus μ-SmBit) (mouse) (UniProt Q9WU02+P42866); assay: split reporter + FRET or BRET; NanoBit-NanoBRET in HEK cells co-transfected with receptor-LgBit, receptor-SmBit (reconstituted split Nluc as donor) and β-arrestin 2-Venus (acceptor); without agonist or with AVP and/or DAMGO for 5 min at ambient temperature; ratio of light at 530/480 nm; amounts of plasmid varied
[4] = target: heteromeric μ-V1b receptor (V1b-SmBit plus μ-LgBit) (mouse) (UniProt Q9WU02+P42866); assay: as above
[5] = target: T1, V1b-Nluc (mouse) (UniProt Q9WU02); assay: FRET or BRET; NanoBRET in HEK cells co-transfected with receptor-Nluc (donor) and β-arrestin 2-Venus (acceptor); without agonist or with AVP for 5 min at ambient temperature; assay buffer with 137 mM NaCl, 10 mM HEPES pH 7.4; ratio of light at 530/480 nm; amounts of receptor plasmid varied
T1 sequence: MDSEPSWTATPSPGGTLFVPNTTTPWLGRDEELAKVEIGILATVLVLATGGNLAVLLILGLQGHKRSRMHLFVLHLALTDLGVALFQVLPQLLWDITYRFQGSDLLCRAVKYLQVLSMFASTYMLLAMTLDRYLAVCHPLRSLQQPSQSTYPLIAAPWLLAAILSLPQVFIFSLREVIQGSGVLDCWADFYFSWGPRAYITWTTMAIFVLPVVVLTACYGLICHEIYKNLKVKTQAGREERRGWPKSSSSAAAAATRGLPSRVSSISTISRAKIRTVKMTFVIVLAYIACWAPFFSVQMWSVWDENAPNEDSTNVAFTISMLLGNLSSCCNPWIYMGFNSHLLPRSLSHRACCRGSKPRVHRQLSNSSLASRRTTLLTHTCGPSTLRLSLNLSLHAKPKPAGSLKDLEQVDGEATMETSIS

[6] = target: V1a-Nluc (mouse) (UniProt Q62463); assay: as above
[7] = target: T2, V1b-Venus (mouse) (UniProt Q9WU02); assay: FRET or BRET; NanoBRET in HEK cells co-transfected with receptor-Nluc (donor) and receptor- or channel-Venus (acceptor) at different ratios (1:0.08–39), without agonist; BRETeff = BRET/BRETmax with μ-Venus-Nluc as BRETmax
T2 sequence: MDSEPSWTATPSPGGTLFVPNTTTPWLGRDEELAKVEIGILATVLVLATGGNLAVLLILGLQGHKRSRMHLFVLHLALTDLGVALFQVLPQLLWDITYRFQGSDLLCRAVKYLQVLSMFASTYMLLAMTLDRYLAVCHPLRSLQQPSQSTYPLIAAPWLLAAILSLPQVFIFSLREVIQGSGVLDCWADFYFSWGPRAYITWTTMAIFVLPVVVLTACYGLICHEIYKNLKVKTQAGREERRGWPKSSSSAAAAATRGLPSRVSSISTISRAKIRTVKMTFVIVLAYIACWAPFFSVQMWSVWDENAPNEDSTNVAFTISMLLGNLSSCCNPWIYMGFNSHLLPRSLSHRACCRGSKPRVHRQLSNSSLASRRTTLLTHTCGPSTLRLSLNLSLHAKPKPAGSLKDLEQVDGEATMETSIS

[8] = target: μ-opioid receptor fused to LgBit or SmBit (mouse) (UniProt P42866); assay: split reporter; NanoBit luminescence of HEK cells co-expressing receptor-LgBit and receptor-SmBit, without β-arrestin 2-Venus; luminescence averaged over five min
[9] = target: V1b receptor fused to LgBit or SmBit (mouse) (UniProt Q9WU02); assay: as above

Molecule: V1a receptor fused to LgBit or SmBit (from UniProt Q62463 1-423)
binding [1]: binds
binding [2]: binds

Molecule: β-arrestin 2-Venus (from UniProt Q91YI4 1-410)
binding [3]: binds
binding [4]: binds
binding [5]: binds
binding [6]: binds

Molecule: μ-opioid receptor fused to LgBit or SmBit (from UniProt P42866 1-398)
binding [8]: binds

Next, values leading:

binding [7]: binds
Molecule: μ-Nluc (from UniProt P42866 1-398) (receptor)

binding [9]: binds
B1: V1b receptor fused to LgBit or SmBit (receptor, UniProt Q9WU02 1-421)
chain: MDSEPSWTATPSPGGTLFVPNTTTPWLGRDEELAKVEIGILATVLVLATGGNLAVLLILGLQGHKRSRMHLFVLHLALTDLGVALFQVLPQLLWDITYRFQGSDLLCRAVKYLQVLSMFASTYMLLAMTLDRYLAVCHPLRSLQQPSQSTYPLIAAPWLLAAILSLPQVFIFSLREVIQGSGVLDCWADFYFSWGPRAYITWTTMAIFVLPVVVLTACYGLICHEIYKNLKVKTQAGREERRGWPKSSSSAAAAATRGLPSRVSSISTISRAKIRTVKMTFVIVLAYIACWAPFFSVQMWSVWDENAPNEDSTNVAFTISMLLGNLSSCCNPWIYMGFNSHLLPRSLSHRACCRGSKPRVHRQLSNSSLASRRTTLLTHTCGPSTLRLSLNLSLHAKPKPAGSLKDLEQVDGEATMETSIS
